Measurements from patent US11062797B2, “Method and system for obtaining and using pharmacokinetic data in drug administration” (Continuous Precision Medicine, priority 2014, dated 2021).
Read-outs that look alike come from different tables or passages of the source. Marks after values point to notes of the source that are not given here.

System: patients scheduled for elective esophagogastroduodenoscopy (EGD)
Conditions: median (IQR)
Description: In addition to ASA standard monitors, respiratory inductance plethysmography (RIP) (Ambulatory Monitoring Inc, Armonk, N.Y.), SEDLine® patient state index (PSI) (Masimo Corp, Irvine, Calif.) and RAD87 pulse oximeter (Masimo Corp, Irvine, Calif.) were applied. All patients received 50 μg of fentanyl immediately prior to initiation of sedation. […] In the experimental arm, patient age and weight were used by the PRC algorithm to calculate bolus, infusion1, infusion2, and time for transition from infusion1 to infusion2. These numbers were reviewed by an investigator prior to initiation of sedation, and when the patient could tolerate airway placement, the software determined the maintenance infusion to maintain the effect-site concentration at the value existing at that time. Custom software written in Labview 2012 (National Instruments, Austin, Tex.) performed these calculations, transmitted the infusion rates to a Graseby 3400 pump (Marcal Medical, Millersville, Md.), and acquired data from the monitors.
All patients were preoxygenated using a Mapleson circuit at oxygen flows greater than 10 liters per minute. Following placement of the Robertazzi airway, the Mapleson circuit was connected to the airway via the connector from an endotracheal tube and the adjustable pressure limit valve closed, assuring continuous flow of 100% oxygen into the hypopharynx.
In experimental patients, the CRNA could request additional boluses or changes in infusion rates as they saw fit. […] This measure is reported in two ways. The first is termed “adjustment dose”, which is the cumulative absolute value of the difference between the intended trajectory and the actual administration. The second is the “intended ratio”, which is the ratio of the dose delivered on the intended trajectory and the actual administration. These measures are depicted in FIG. 7. In FIG. 7, the dotted line indicates the actual infusion rates, while the solid line indicates the intended trajectory (fixing the infusion rate at 300 μg/kg/min).
Ventilatory depression was assessed from respiratory inductance plethysmography signals. The signals were filtered by ensemble empirical mode decomposition employing 450 realizations and noise scaled to 40% of signal power. The dominant mode was used for the Huang-Hilbert Transform (HHT). Minute ventilation was computed as the product of the respiratory rate times the magnitude of volume change at one second intervals. Baseline ventilation was determined from several breaths prior to initiation of sedation; subsequent measurements were normalized by this baseline value. […]
Effect site estimates were calculated using the Cortinez model employing the nominal values, with an adjoined effect compartment. […]

CC(C)c1cccc(C(C)C)c1O [propofol]
Adjustment Dosing (Control (CRNA dosing)): 24.1 (37.2) mg
Total Propofol (Control (CRNA dosing)): 295.6 (136.3) mg
Adjustment Dosing (Experimental (PRC)): 0 (0) # mg
Total Propofol (Experimental (PRC)): 287.5 (167) NS mg
